Assay results published in the supplement of paper PMC9233669.
Variants at the background level are over-represented here.

Assays:
biotinyl-Phe-oxazolone = assay: self-aminoacylation, catalytic enhancement (BFO) (fold over background); higher = more active; k-Seq, kA / k0A0; sequences stand for … in GGGAAUGGAUCCACAUCUACGAAUUC…UUCACUGCAGACUUGACGAAGCUG
In short: (§1)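 Catalytic enhancement equals the median kA over the uncatalyzed rate, the latter read from the low-activity peak of a bimodal Gaussian fit. Values of kA came from fitting each sequence's fraction reacted to a pseudo-first-order model, with 1000 bootstraps. Reacted RNA was captured with streptavidin and quantified by triplicate qPCR and Illumina sequencing after 90 minutes at room temperature with 2–1250 μM biotinyl-aminoacyl-oxazolone and 0.43 μM mutagenized RNA pools bearing a 21-nt variable region.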

biotinyl-Trp-oxazolone = assay: self-aminoacylation, catalytic enhancement (BWO) (fold over background); higher = more active; k-Seq, kA / k0A0; sequences stand for … in GGGAAUGGAUCCACAUCUACGAAUUC…UUCACUGCAGACUUGACGAAGCUG
In short: as §1

biotinyl-Met-oxazolone = assay: self-aminoacylation, catalytic enhancement (BMO) (fold over background); higher = more active; k-Seq, kA / k0A0; sequences stand for … in GGGAAUGGAUCCACAUCUACGAAUUC…UUCACUGCAGACUUGACGAAGCUG
In short: as §1

biotinyl-Leu-oxazolone = assay: self-aminoacylation, catalytic enhancement (BLO) (fold over background); higher = more active; k-Seq, kA / k0A0; sequences stand for … in GGGAAUGGAUCCACAUCUACGAAUUC…UUCACUGCAGACUUGACGAAGCUG
In short: as §1

biotinyl-Val-oxazolone = assay: self-aminoacylation, catalytic enhancement (BVO) (fold over background); higher = more active; k-Seq, kA / k0A0; sequences stand for … in GGGAAUGGAUCCACAUCUACGAAUUC…UUCACUGCAGACUUGACGAAGCUG
In short: as §1

biotinyl-Ile-oxazolone = assay: self-aminoacylation, catalytic enhancement (BIO) (fold over background); higher = more active; k-Seq, kA / k0A0; sequences stand for … in GGGAAUGGAUCCACAUCUACGAAUUC…UUCACUGCAGACUUGACGAAGCUG
In short: as §1

| Sequence | self-aminoacylation (biotinyl-Phe-oxazolone) | self-aminoacylation (biotinyl-Trp-oxazolone) | self-aminoacylation (biotinyl-Met-oxazolone) | self-aminoacylation (biotinyl-Leu-oxazolone) | self-aminoacylation (biotinyl-Val-oxazolone) | self-aminoacylation (biotinyl-Ile-oxazolone) |
| --- | --- | --- | --- | --- | --- | --- |
| AUUACCCUGGUUAUCGACUGA [Fam2.1 aminoacylation ribozyme variant] | 0.62 | 0.329 | 0.542 | 0.625 | 0.673 | 0.587 |
| AUUACCCUGGUUAUCGAGUCA [Fam2.1 aminoacylation ribozyme variant] | 0.691 | 0.571 | 0.782 | 0.982 | 1.11 | 1.04 |
| AUUACCCUGUUCAUCGAGGGA [Fam2.1 aminoacylation ribozyme variant] | 0.871 | 0.745 | 1.46 | 0.937 | 1.35 | 1.34 |
| AUUACCCUGUUCAUUGAGUGA [Fam2.1 aminoacylation ribozyme variant] | 83.6 | 16.3 | 13.8 | 12.7 | 5.4 | 5.73 |
| AUUACCCUUGUCAUCGACUGA [Fam2.1 aminoacylation ribozyme variant] | 0.535 | 0.392 | 0.837 | 0.818 | 0.693 | 0.949 |
| AUUACCCUUGUCAUCGAGUCA [Fam2.1 aminoacylation ribozyme variant] | 0.6 | 0.591 | 0.756 | 0.708 | 0.841 | 0.895 |
| AUUACCCUUGUCAUCGAGUGG [Fam2.1 aminoacylation ribozyme variant] | 1.98 | 1 | 2.03 | 1.85 | 1.54 | 1.25 |
| AUUACCCUUGUCAUCGAUUGA [Fam2.1 aminoacylation ribozyme variant] | 0.757 | 0.838 | 0.796 | 0.778 | 0.907 | 0.766 |
| AUUACCGUAGUCAUCGAGUGA [Fam2.1 aminoacylation ribozyme variant] | 26 | 7.23 | 4.79 | 5.83 | 3.22 | 2.94 |
| AUUACCGUGAUCAUCGAGUGA [Fam2.1 aminoacylation ribozyme variant] | 44.9 | 10.5 | 9.07 | 8.78 | 4.34 | 4.18 |
| AUUACCGUGGUAAUCGAGUGA [Fam2.1 aminoacylation ribozyme variant] | 43.2 | 9.95 | 8.54 | 9.2 | 4.18 | 3.63 |
| AUUACCGUGGUCAUCGAGUCA [Fam2.1 aminoacylation ribozyme variant] | 0.628 | 0.457 | 0.771 | 0.745 | 0.855 | 0.869 |
| AUUACCUUGGUCAUCGACUGA [Fam2.1 aminoacylation ribozyme variant] | 0.841 | 0.355 | 0.684 | 0.747 | 0.787 | 0.836 |
| AUUACUCUGGUCAUCGACUGA [Fam2.1 aminoacylation ribozyme variant] | 0.898 | 1.31 | 0.886 | 0.75 | 0.798 | 1.04 |
| AUUACUCUGGUCAUCGAGCGA [Fam2.1 aminoacylation ribozyme variant] | 0.95 | 1.09 | 1.63 | 1.71 | 1.34 | 1.52 |
| AUUAGCCCGGUCAUCGAGUGA [Fam2.1 aminoacylation ribozyme variant] | 55.9 | 7.74 | 6.23 | 6.64 | 3.57 | 3.45 |
| AUUAGCCUGGUCAUCGAUUGA [Fam2.1 aminoacylation ribozyme variant] | 1.2 | 0.955 | 1.58 | 1.48 | 1.26 | 1.14 |
| AUUAUCCUGGUCAUCGAGUCA [Fam2.1 aminoacylation ribozyme variant] | 0.544 | 0.379 | 0.719 | 0.699 | 0.747 | 0.777 |
| AUUAUCCUGGUGAUCGAGUGA [Fam2.1 aminoacylation ribozyme variant] | 45.5 | 9.06 | 7.34 | 7.98 | 3.46 | 3.55 |
| AUUCAACUAGGUCGUCGGGUG [Fam2.2 aminoacylation ribozyme variant] | 6.9 | 1.38 | 1.35 | 1.8 | 1.65 | 1.59 |
| AUUCACAUAGGUCUUCGGGUG [Fam2.2 aminoacylation ribozyme variant] | 39.4 | 5.51 | 4.21 | 5.35 | 4.59 | 4.26 |
| AUUCACCAAGGUCAUCGGGCG [Fam2.2 aminoacylation ribozyme variant] | 16 | 3.82 | 4.07 | 4.59 | 3.64 | 3.24 |
| AUUCACCACGGUCAUCGGGUG [Fam2.2 aminoacylation ribozyme variant] | 68.7 | 10 | 9.37 | 12.3 | 6.13 | 5.71 |
| AUUCACCCAGGUCAACGGGUG [Fam2.2 aminoacylation ribozyme variant] | 19.7 | 3.81 | 3.24 | 4.29 | 2.53 | 1.96 |
| AUUCACCGAGGUUAUCGGGUG [Fam2.2 aminoacylation ribozyme variant] | 87.3 | 7.66 | 7.16 | 10 | 5.85 | 4.28 |
| AUUCACCUAAGUCAUAGGGUG [Fam2.2 aminoacylation ribozyme variant] | 5.88 | 1.3 | 1.87 | 1.92 | 1.21 | 1.32 |

| Sequence | self-aminoacylation (biotinyl-Phe-oxazolone) | self-aminoacylation (biotinyl-Trp-oxazolone) | self-aminoacylation (biotinyl-Met-oxazolone) | self-aminoacylation (biotinyl-Leu-oxazolone) | self-aminoacylation (biotinyl-Val-oxazolone) | self-aminoacylation (biotinyl-Ile-oxazolone) |
| --- | --- | --- | --- | --- | --- | --- |
| AUUCACCUAGAUCAUCGGGAG [Fam2.2 aminoacylation ribozyme variant] | 0.606 | 1.33 | 0.94 | 1.13 | 1.11 | 1.09 |
| AUUCACCUAGGACAUCAGGUG [Fam2.2 aminoacylation ribozyme variant] | 0.743 | 1.12 | 1.22 | 1.22 | 1.19 | 1.19 |
| AUUCACCUAGGACGUCGGGUG [Fam2.2 aminoacylation ribozyme variant] | 9.18 | 1.42 | 1.91 | 1.91 | 1.88 | 1.66 |
| AUUCACCUAGGCCAUCGAGUG [Fam2.2 aminoacylation ribozyme variant] | 0.872 | 1.19 | 1.24 | 1.61 | 1.09 | 1.09 |
| AUUCACCUAGGCCAUCGCGUG [Fam2.2 aminoacylation ribozyme variant] | 31.6 | 3.85 | 4.45 | 6.31 | 4.15 | 4.69 |
| AUUCACCUAGGUAAUCGGGGG [Fam2.2 aminoacylation ribozyme variant] | 0.704 | 1.06 | 1.55 | 1.82 | 1.5 | 1.72 |
| AUUCACCUAGGUAAUCGGGUU [Fam2.2 aminoacylation ribozyme variant] | 0.331 | 0.977 | 1.09 | 1.17 | 1.16 | 0.997 |
| AUUCACCUAGGUAAUCUGGUG [Fam2.2 aminoacylation ribozyme variant] | 16.9 | 3.62 | 3.3 | 4.66 | 1.88 | 1.89 |
| AUUCACCUAGGUCAUAGGAUG [Fam2.2 aminoacylation ribozyme variant] | 0.656 | 0.235 | 0.507 | 0.405 | 0.633 | 0.481 |
| AUUCACCUAGGUCAUCGAGUC [Fam2.2 aminoacylation ribozyme variant] | 0.714 | 0.52 | 0.501 | 0.629 | 0.615 | 0.5 |
| AUUCACCUAGGUCAUCUGAUG [Fam2.2 aminoacylation ribozyme variant] | 0.489 | 0.419 | 0.695 | 0.751 | 0.669 | 0.695 |
| AUUCACCUAGGUCAUGGUGUG [Fam2.2 aminoacylation ribozyme variant] | 0.397 | 0.519 | 0.846 | 0.994 | 0.932 | 0.936 |
| AUUCACCUAGGUCUUCGGAUG [Fam2.2 aminoacylation ribozyme variant] | 1.58 | 1.38 | 1.05 | 1.33 | 1.15 | 1.03 |
| AUUCACCUAGGUGAUCGGGAG [Fam2.2 aminoacylation ribozyme variant] | 0.405 | 1.58 | 1.22 | 1.08 | 1.36 | 1.38 |
| AUUCACCUAGGUUAUCGGGCG [Fam2.2 aminoacylation ribozyme variant] | 1.4 | 1.67 | 1.62 | 1.79 | 1.49 | 1.77 |
| AUUCACCUAGUGCAUCGGGUG [Fam2.2 aminoacylation ribozyme variant] | 5.22 | 1.17 | 1.62 | 2.12 | 1.63 | 1.35 |
| AUUCACCUGGGUCAUCGGGUU [Fam2.2 aminoacylation ribozyme variant] | 17.4 | 7.09 | 6.89 | 9.06 | 5.13 | 4.39 |
| AUUCACGUAGGUCAUCGGGCG [Fam2.2 aminoacylation ribozyme variant] | 5.97 | 1.21 | 2.41 | 2.57 | 2.56 | 2.07 |
| AUUCAUCUAGGCCAUCGGGUG [Fam2.2 aminoacylation ribozyme variant] | 19 | 3 | 3.38 | 5.22 | 2.84 | 2.39 |
| AUUCCCCUGGUCAUCGAGUCA [Fam2.1 aminoacylation ribozyme variant] | 0.591 | 0.967 | 1.23 | 1.13 | 1.13 | 1.34 |
| AUUCUCCUAGAUCAUCGGGUG [Fam2.2 aminoacylation ribozyme variant] | 34.7 | 4.66 | 4.32 | 5.3 | 2.68 | 3.28 |
| AUUGAUCUAGGUCAUCGGGUG [Fam2.2 aminoacylation ribozyme variant] | 35.2 | 7.06 | 6.53 | 7.89 | 3.8 | 4.45 |
| AUUGCCCUGGUCAUCGAGCGA [Fam2.1 aminoacylation ribozyme variant] | 3.91 | 3.11 | 2.55 | 3.48 | 2.33 | 1.69 |
| AUUGCCCUGGUCAUCGAGUGC [Fam2.1 aminoacylation ribozyme variant] | 11.6 | 4.08 | 4.79 | 4.73 | 2.32 | 1.99 |
| AUUGCCCUGGUCAUCGUGUGA [Fam2.1 aminoacylation ribozyme variant] | 24 | 3.2 | 2.93 | 3.19 | 1.87 | 1.51 |
